Results deposited as PubChem BioAssay AID1259254 (NCATS, 2017)
Test: 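Genome-wide screen for genes that prevent DNA re-replication in cancer cells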 (primary screen). System: human HCT116 colorectal cancer cells. Knock-down reagent: single siRNA against human genes. Duration: 3 days. Measurement: 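Imaged Hoechst DNA stain sorts each cell into a cycle phase by DNA amount; per plate, G2 fraction set to 0% for non-targeting and 100% for GMNN siRNA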. Scale: G2 robust z-score and G2 cells, % of GMNN control: higher = more G2 cells, more excess DNA replication; raw share of cells in G2: higher = larger share of cells with G2 DNA content. Rule for the call: 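An siRNA counts as active if its G2 robust z-score lies at least 5 MADs above the screen median; here such calls match roughly 38% of GMNN control or more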.
The whole screen tested about 59,000 reagents; below is a part drawn at random. About 1,550 of all reagents (2.6%) were called active. 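G2 share is only a proxy for re-replication; each gene was hit by three separate siRNAs, and active genes were retested.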 Raw values vary from plate to plate and are shown uncorrected. The numbers tell different reagents against one gene apart. No sequences are given here. Not stated in the record: the amount of reagent.

| gene symbol | reagent | G2 robust z-score | G2 cells, % of GMNN control | raw share of cells in G2 (%) | outcome |
| --- | --- | --- | --- | --- | --- |
| OR11G2 (olfactory receptor family 11 subfamily G member 2) | 1 | -0.0722 | 2.46 | 4.62 | inactive |
| OR11G2 (olfactory receptor family 11 subfamily G member 2) | 2 | -0.384 | 0.264 | 3.52 | inactive |
| OR11G2 (olfactory receptor family 11 subfamily G member 2) | 3 | -0.752 | -2.32 | 3.64 | inactive |
| TOMM22 (translocase of outer mitochondrial membrane 22) | 1 | -1.56 | -7.99 | 2.93 | inactive |
| TOMM22 (translocase of outer mitochondrial membrane 22) | 2 | -0.0774 | 2.42 | 5.34 | inactive |
| TOMM22 (translocase of outer mitochondrial membrane 22) | 3 | -0.625 | -1.43 | 3.93 | inactive |
| ZNF524 (zinc finger protein 524) | 1 | 1.09 | 10.7 | 6.87 | inactive |
| ZNF524 (zinc finger protein 524) | 2 | -0.815 | -2.77 | 2.55 | inactive |
| ZNF524 (zinc finger protein 524) | 3 | 0.0168 | 3.09 | 4.15 | inactive |
| POLR1A (RNA polymerase I subunit A) | 1 | 2.91 | 23.4 | 12 | inactive |
| POLR1A (RNA polymerase I subunit A) | 2 | 2.52 | 20.7 | 15.5 | inactive |
| POLR1A (RNA polymerase I subunit A) | 3 | -0.529 | -0.757 | 3.74 | inactive |
| CD63 (CD63 molecule) | 1 | 1.18 | 11.2 | 10.6 | inactive |
| CD63 (CD63 molecule) | 2 | 1 | 10 | 7.75 | inactive |
| CD63 (CD63 molecule) | 3 | -0.787 | -2.57 | 2.52 | inactive |
| ZNF518A (zinc finger protein 518A) | 1 | -0.523 | -0.709 | 3.29 | inactive |
| ZNF518A (zinc finger protein 518A) | 2 | -0.079 | 2.41 | 7.06 | inactive |
| ZNF518A (zinc finger protein 518A) | 3 | -0.416 | 0.0425 | 3.36 | inactive |
| DMRT1 (doublesex and mab-3 related transcription factor 1) | 1 | -1.2 | -5.49 | 2.99 | inactive |
| DMRT1 (doublesex and mab-3 related transcription factor 1) | 2 | 1.04 | 10.3 | 7.64 | inactive |
| DMRT1 (doublesex and mab-3 related transcription factor 1) | 3 | 0.759 | 8.31 | 7.93 | inactive |
| SSX2IPP1 (SSX2IP pseudogene 1) | 1 | -0.984 | -3.95 | 1.99 | inactive |
| SSX2IPP1 (SSX2IP pseudogene 1) | 2 | -0.645 | -1.57 | 3.04 | inactive |
| SSX2IPP1 (SSX2IP pseudogene 1) | 3 | 3.23 | 25.7 | 12.5 | inactive |
| ZXDC (ZXD family zinc finger C) | 1 | 3.7 | 29 | 13 | inactive |
| ZXDC (ZXD family zinc finger C) | 2 | -0.563 | -0.995 | 5.46 | inactive |
| ZXDC (ZXD family zinc finger C) | 3 | 0.805 | 8.63 | 6.34 | inactive |
| CCDC134 (coiled-coil domain containing 134) | 1 | -0.251 | 1.2 | 4.94 | inactive |
| CCDC134 (coiled-coil domain containing 134) | 2 | 3.79 | 29.6 | 17.3 | inactive |
| CCDC134 (coiled-coil domain containing 134) | 3 | 0.682 | 7.77 | 4.5 | inactive |
| DSG4 (desmoglein 4) | 1 | -0.744 | -2.27 | 4.87 | inactive |
| DSG4 (desmoglein 4) | 2 | 0.446 | 6.11 | 6.94 | inactive |
| DSG4 (desmoglein 4) | 3 | 0.64 | 7.47 | 7.84 | inactive |
| ARID3B (AT-rich interaction domain 3B) | 1 | -0.7 | -1.96 | 3.21 | inactive |
| ARID3B (AT-rich interaction domain 3B) | 2 | -1.19 | -5.39 | 3.35 | inactive |
| ARID3B (AT-rich interaction domain 3B) | 3 | 0.0576 | 3.37 | 7.81 | inactive |
| REG1A (regenerating family member 1 alpha) | 1 | -1.18 | -5.3 | 2.65 | inactive |
| REG1A (regenerating family member 1 alpha) | 2 | -0.727 | -2.15 | 3.43 | inactive |
| REG1A (regenerating family member 1 alpha) | 3 | -0.691 | -1.9 | 4.33 | inactive |
| LINC02120 (long independently transcribed non-coding RNA 2120) | 1 | -0.784 | -2.55 | 3.16 | inactive |
| LINC02120 (long independently transcribed non-coding RNA 2120) | 2 | -0.93 | -3.57 | 2.76 | inactive |
| LINC02120 (long independently transcribed non-coding RNA 2120) | 3 | -0.389 | 0.228 | 3.36 | inactive |
| CUL5 (cullin 5) | 1 | 1.76 | 15.4 | 12.1 | inactive |
| CUL5 (cullin 5) | 2 | 3.81 | 29.8 | 14.3 | inactive |
| CUL5 (cullin 5) | 3 | -0.404 | 0.122 | 4.31 | inactive |
| OSBPL11 (oxysterol binding protein like 11) | 1 | -0.649 | -1.6 | 3.88 | inactive |
| OSBPL11 (oxysterol binding protein like 11) | 2 | -0.185 | 1.66 | 5.68 | inactive |
| OSBPL11 (oxysterol binding protein like 11) | 3 | -0.544 | -0.863 | 5.27 | inactive |
